Laboratory results: PubChem BioAssay AID1259331 (Drosophila RNAi Screening Center, 2017)
Assay: 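Fly transmembrane-protein genes that affect zinc toxicity in cultured cells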 (primary screen). Cells: Drosophila S2R+ cells. Reagent: long dsRNA against Drosophila genes. Time to read-out: 5 days (4 days knock-down, then 1 day zinc). Conditions: zinc chloride at 15 mM final level for 1 day. Detection: 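Total cellular ATP measured by luciferase luminescence as a viability proxy, turned into Z scores from three plate copies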. Reading the numbers: mean Z score: higher = more ATP than other wells, better survival under zinc; ATP luminescence: higher = more ATP, more viable cells. Hit rule: 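a reagent is called a hit when its Z score is above 1.5 or below -1.5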. Calls: active = hit, ATP up or down; inactive = not a hit.
Shown is one part, drawn at random, of about 3,100 reagents tested. 126 of them (4.1%) were called active. 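Calls are per reagent; zinc was so toxic that few knock-downs lowered ATP further, so most hits raise ATP.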 The raw values are shown without normalisation. Unmarked entries are inactive. A plus sign joins genes that one reagent is predicted to hit. The record does not give: the amount of reagent.

Target gene	dsRNA	mean Z score	ATP luminescence, replicate 1	ATP luminescence, replicate 2
CG4025	DRSC18523	0.397	74358	70870
CG6978	DRSC18409	-0.737	52861	54819
CG6978	DRSC39567	-0.24	58420	57271
salt	DRSC25514	0.0214	61345	62107
Or45b	DRSC07488	-0.152	79000	66188
Or45b	DRSC39528	0.129	65056	36267
PGRP-SA	DRSC19420	0.364	70905	73289
ppk20	DRSC16260	0.914	74935	87594
ppk20	DRSC28819	0.105	61452	64611
ZnT41F	DRSC04850	-0.145	29290	32787
Ntl	DRSC03003	-0.115	54974	36953
Ntl	DRSC28007	0.24	62492	60958
CG13016	DRSC06271	-0.109	63993	64542
CG13016	DRSC39858	0.0939	58506	62947
Ctl1	DRSC08303	1.04	92378	76976
Ctl1	DRSC39447	0.0951	66737	30662
SPoCk	DRSC11844	-0.282	71067	53841
SPoCk	DRSC24007	0.523	69824	69087
Papst2	DRSC10924	-0.409	30490	24919
Papst2	DRSC27212	0.0507	56482	64662
InR	DRSC16717	-0.579	36353	53225
InR	DRSC36685	-0.425	42525	38822
InR	DRSC36686	-0.439	42388	43076
GrlHz	DRSC04424	-0.332	28845	29153
GrlHz	DRSC39675	1.35	78863	86582
CG33234	DRSC07994	-0.0203	42782	44046
CG33234	DRSC39757	-0.11	58866	58351
CG33090	DRSC01908	-0.104	53653	55927
CG33090	DRSC27923	-0.19	55796	54870
Tango5	DRSC18023	0.0825	45011	45587
Tango5	DRSC25500	-0.0725	61524	59003
Tmep	DRSC08215	-0.419	28639	28587
Tmep	DRSC26652	2.8 (active)	1.04e5	91746
Or98a	DRSC16774	0.268	70064	70922
Or98a	DRSC26173	0.188	56343	58111
Arl6IP1	DRSC14231	-0.311	37896	51389
Arl6IP1	DRSC39486	-0.294	51681	43674
Or22b	DRSC00765	-0.726	36113	37467
Or22b	DRSC39696	0.14	63237	60735
kek3	DRSC22830	0.0177	49778	47171
kek3	DRSC24250	-0.143	54270	55265
Dh44-R1	DRSC07172	-0.58	25761	29410
Dh44-R1	DRSC28984	2.29 (active)	98042	95238
Spg7	DRSC18469	-0.318	63427	58077
Spg7	DRSC39600	-0.202	58454	56828
Ant2	DRSC26446	-0.188	55642	56208
5-HT2B	DRSC16360	-0.295	36285	54819
5-HT2B	DRSC16362	-0.682	35839	47994
5-HT2B	DRSC25577	-0.305	48852	52744
CR32011 + CR32009 + PlexB + 1 more	DRSC21664	0.141	49315	50378
CR32011 + CR32009 + PlexB + 1 more	DRSC26099	-0.338	50429	51269
CG9254	DRSC01969	0.107	52161	40738
CG7881	DRSC04898	-0.186	1.03e5	68778
CG7881	DRSC39816	0.0639	54304	60117
JhI-21	DRSC02161	-0.424	50481	49966
JhI-21	DRSC29181	0.0687	65554	59294
Eato	DRSC01891	-0.0807	54390	55813
Eato	DRSC03061	-0.354	48234	38788
gogo	DRSC10070	2.92 (active)	1.26e5	1.04e5
gogo	DRSC10071	-0.187	39970	42062
bw	DRSC04005	-0.169	38487	40948
bw	DRSC04677	-0.0637	29222	33662
CNMaR	DRSC08992	-0.424	36302	39062
CNMaR	DRSC10224	-0.197	72903	58421
CG31141	DRSC13646	-0.152	69361	63237
CG31141	DRSC29508	0.121	60872	65691
PGRP-LF	DRSC28930	0.665	71625	71659
CG17637	DRSC11740	-0.271	71831	53516

Single entries from above:
bw [DRSC04005], ATP luminescence, replicate 2 → 40948
Entry for CNMaR [DRSC08992] in “mean Z score”: -0.424
Ctl1 [DRSC08303], ATP luminescence, replicate 1: 92378
CG7881 [DRSC04898], ATP luminescence, replicate 1 → 1.03e5
kek3 [DRSC22830], ATP luminescence, replicate 1: 49778
Tmep [DRSC08215], ATP luminescence, replicate 2: 28587
